According to paper PMC6189040:
These are yes or no findings as the source states them, for the method shown. Some results given as binding are weak or reduced against the parent protein; the word gives no strength.

Protein sequences, listed by entry. Tags and fused reporters are not part of them. Residues count along the entry.
UniProt P04608, residues 1-72: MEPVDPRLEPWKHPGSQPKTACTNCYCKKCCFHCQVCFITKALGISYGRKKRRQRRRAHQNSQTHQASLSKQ
UniProt O60563, residues 1-280: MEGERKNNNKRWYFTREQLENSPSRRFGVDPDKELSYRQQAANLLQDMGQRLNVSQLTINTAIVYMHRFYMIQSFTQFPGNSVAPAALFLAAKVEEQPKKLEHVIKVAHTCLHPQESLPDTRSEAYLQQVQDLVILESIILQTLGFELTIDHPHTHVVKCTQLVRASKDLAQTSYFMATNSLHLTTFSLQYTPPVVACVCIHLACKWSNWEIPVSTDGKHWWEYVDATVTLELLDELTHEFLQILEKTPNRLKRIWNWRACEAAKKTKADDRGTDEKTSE

T1: AFF4 (32-67) (UniProt Q9UHB7)
T1 sequence: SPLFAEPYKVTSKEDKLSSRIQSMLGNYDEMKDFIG


Tests used:
AFF4 (32-67) = molecular target: T1, AFF4 (32-67); experiment: co-purification (Ni-NTA affinity, then SEC); three proteins co-expressed in High-five cells; lysate in 50 mM sodium phosphate pH 7.4, 300 mM NaCl, 10% glycerol, 0.1% 2-mercaptoethanol, 0.1% CHAPS; captured on Ni-NTA by His-Tat and His-GB1-AFF4, tags cleaved with TEV, second Ni-NTA, Superdex200 in 25 mM HEPES pH 7.5, 200 mM NaCl, 1 mM DTT, 5% glycerol
HIV-1 Tat (1-72) (HIV-1) = HIV-1 Tat (1-72) (HIV-1) (UniProt P04608); experiment: as above

| Molecule | binding (AFF4 (32-67)) | binding (HIV-1 Tat (1-72) (HIV-1)) |
| --- | --- | --- |
| Cyclin T (1-280) (from UniProt O60563 1-280) (domain or fragment) | binds | binds |
| SPLFAEPYKVTSKEDKLSSRIQSMLGNYDEMKDFIG (domain or fragment, UniProt Q9UHB7 32-67) [AFF4 (32-67)] | – | binds |
